# Test results from PMC10665487.
# By UniProt entry, the sequences of proteins in these tests, tags left out. Where a name states a change or a piece, a line headed by the entry shows the natural chain unless it says otherwise.
# UniProt P83916: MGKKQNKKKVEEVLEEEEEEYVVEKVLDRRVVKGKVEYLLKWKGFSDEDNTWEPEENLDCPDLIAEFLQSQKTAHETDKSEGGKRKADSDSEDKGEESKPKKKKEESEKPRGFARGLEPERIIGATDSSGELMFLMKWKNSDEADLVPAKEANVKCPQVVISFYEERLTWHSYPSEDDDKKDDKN
# UniProt P0C0S5: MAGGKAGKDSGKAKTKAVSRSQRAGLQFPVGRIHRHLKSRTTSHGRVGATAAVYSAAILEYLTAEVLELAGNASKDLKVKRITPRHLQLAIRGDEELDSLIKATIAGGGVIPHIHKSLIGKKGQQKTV
# No constants are given. Whether binding was seen depends on the method and setting. In cells and extracts the contact can be indirect. Some binding calls cover weakened binding; strength is not graded here.
# Assays:
# HP1β-HA [1] = biological target: HP1β-HA (UniProt P83916); test: co-IP; HA agarose beads, nuclear extracts of transfected HEK293F cells (Dignam protocol, Benzonase 6 h at 4°C), overnight at 4°C, washes with BC100 and BC500 (500 mM KCl), elution with 0.2 M glycine pH 2.3; blot
# HP1β-HA [2] = biological target: HP1β-HA (UniProt P83916); test: co-IP; HA beads, whole cell extracts of HEK293F cells expressing HA-tagged HP1 constructs; blot of endogenous H2A.Z
# HP1β-RFP = HP1β-RFP (UniProt P83916); test: FRET or BRET; FRET by time-correlated single-photon counting in PCH foci of living NIH3T3 cells cotransfected for 48 h with H2A.Z.1-EGFP (donor) and HP1-RFP (acceptor); relative FRET % against GFP-RFP (100%) and donor alone (0%)
binding (HP1β-HA [1]),binding (HP1β-HA [2]),binding (HP1β-RFP),Substance
binds,binds,,endogenous H2A.Z (from UniProt P0C0S5 1-128)
binds,,binds,H2A.Z.1-EGFP (from UniProt P0C0S5 1-128)
